Data source: PubChem BioAssay AID1671195 (Yale University, 2021)
In all, the deposit lists about 22,000 reagents; this is a random part of them. About 1,510 of them (6.9%) were called active. 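Active includes knockdowns raising or lowering LDL uptake; positive z-scores mean more uptake, negative mean less.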 Unmarked entries are inactive.

- Purpose: 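Regulators of LDL receptor activity judged by labelled LDL uptake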 (primary screen)
- System: human Huh7 hepatoma cells
- Knock-down reagent: siRNA pool against human genes, 18 nM
- Timing: about 2 to 2.5 days of knockdown, then 8 h LDL uptake
- Conditions: DiI-labelled LDL at 30 µg/ml for 8 h, in lipoprotein-deficient serum medium
- Measured: 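Per-cell DiI-LDL intensity by automated imaging; well means scaled to the plate median and given as a robust z-score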
- Scale: robust z-score: higher = more LDL uptake after knockdown
- Rule for the call: 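Active when two or more replicates show a robust z-score above 2 or below -2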

What is on record for PRR15 (proline rich 15)?
robust z-score, replicate 1: -0.526; robust z-score, replicate 2: -0.691; robust z-score, replicate 3: -0.449

What is on record for MESTP4 (mesoderm specific transcript pseudogene 4)?
robust z-score, replicate 1: -0.398; robust z-score, replicate 2: -1.41; robust z-score, replicate 3: -0.344

How did the screen score OR7C2 (olfactory receptor family 7 subfamily C member 2)?
robust z-score, replicate 1: 0.0172; robust z-score, replicate 2: 0.895; robust z-score, replicate 3: -0.229

What did the screen give for COX7C (cytochrome c oxidase subunit 7C)?
robust z-score, replicate 1: -0.237; robust z-score, replicate 2: 0.26; robust z-score, replicate 3: 0.252

What did the screen give for EGFR (epidermal growth factor receptor)?
robust z-score, replicate 1: 0.165; robust z-score, replicate 2: 1.17; robust z-score, replicate 3: 0.203

Which result is listed for SLC22A3?
robust z-score, replicate 1: 0.628; robust z-score, replicate 2: 0.259; robust z-score, replicate 3: 0.709

With VARS2 (valyl-tRNA synthetase 2, mitochondrial), what does the deposit list?
robust z-score, replicate 1: -0.325; robust z-score, replicate 2: 0.58; robust z-score, replicate 3: -0.198

With HOXB7 (homeobox B7), what was measured?
robust z-score, replicate 1: -0.692; robust z-score, replicate 2: -0.701; robust z-score, replicate 3: -0.331

For PAQR7 (progestin and adipoQ receptor family member 7), what does the deposit list?
robust z-score, replicate 1: -1.08; robust z-score, replicate 2: -0.391; robust z-score, replicate 3: -1

Only “robust z-score, replicate 2” (2 entries from above):
OR7C2 (olfactory receptor family 7 subfamily C member 2)	0.895
COX7C (cytochrome c oxidase subunit 7C)	0.26

Next reagents follow:
For SLC2A12, what does the deposit list?
robust z-score, replicate 1: 1.28; robust z-score, replicate 2: 0.797; robust z-score, replicate 3: 1.78

For SLC3A1, how do the results read?
robust z-score, replicate 1: -1.13; robust z-score, replicate 2: -0.91; robust z-score, replicate 3: -0.193

What is on record for MED28 (mediator complex subunit 28)?
robust z-score, replicate 1: -0.17; robust z-score, replicate 2: -0.098; robust z-score, replicate 3: -0.17

Which result is listed for RPL27AP2 (ribosomal protein L27a pseudogene 2)?
robust z-score, replicate 1: -0.46; robust z-score, replicate 2: 0.258; robust z-score, replicate 3: 0.448

What is on record for PDC (phosducin)?
robust z-score, replicate 1: -0.204; robust z-score, replicate 2: -0.0488; robust z-score, replicate 3: -1.07

With TRAM2-AS1 (TRAM2 antisense RNA 1), how do the results read?
robust z-score, replicate 1: -1.97; robust z-score, replicate 2: -1.71; robust z-score, replicate 3: -1.84

Which result is listed for SLC8A1?
robust z-score, replicate 1: 0.904; robust z-score, replicate 2: 0.252; robust z-score, replicate 3: 1.28

What is on record for LOC441341 (retired record)?
robust z-score, replicate 1: -1.07; robust z-score, replicate 2: -0.913; robust z-score, replicate 3: -0.426

What did the screen give for TLN2-AS2 (TLN2 antisense RNA 2)?
robust z-score, replicate 1: -0.244; robust z-score, replicate 2: 0.342; robust z-score, replicate 3: -0.406

What did the screen give for IKBKE (inhibitor of nuclear factor kappa B kinase subunit epsilon)?
robust z-score, replicate 1: 0.719; robust z-score, replicate 2: 0.189; robust z-score, replicate 3: 0.0322

With USH2A (usherin), how do the results read?
robust z-score, replicate 1: -1.2; robust z-score, replicate 2: -0.7; robust z-score, replicate 3: -0.749

Which result is listed for CSNK2A1 (casein kinase 2 alpha 1)?
robust z-score, replicate 1: 0.983; robust z-score, replicate 2: 0.569; robust z-score, replicate 3: 1.64

With RELB (RELB proto-oncogene, NF-kB subunit), what does the deposit list?
robust z-score, replicate 1: 0.613; robust z-score, replicate 2: 0.856; robust z-score, replicate 3: 1.05

For HMGCL (3-hydroxy-3-methylglutaryl-CoA lyase), what does the deposit list?
robust z-score, replicate 1: 2.47 (active); robust z-score, replicate 2: 1.06; robust z-score, replicate 3: 2.65

With NEFH (neurofilament heavy chain), what does the deposit list?
robust z-score, replicate 1: 0.424; robust z-score, replicate 2: 0.824; robust z-score, replicate 3: -1.15
